From the supplement of paper PMC6078165
± gives the standard deviation of the averaged measurements. The reference is the same well before dosing, and untreated signal decays as well.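 Fibroblast labels name human fibroblasts: mostly primary ones from tissues such as uterus (C12385, HUF), lung (H6013), bone (Hs27A), adrenal (HADF) and skin (WS1), plus mammary HMF and breast cancer-associated Hs343T. The cancer cells are basal-like or mesenchymal-like triple-negative breast cancer lines. The paper calls a changed response a hit when it shifts by more than 3x the replicate standard deviation. The tissue of the other fibroblasts is not given here.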 Numbered stars: 1 amine (or outer) side, 2 acyl side, 3 side chain; on linkers, the order of the positions; unused ones are H or OH. Bridge positions count the residues as written; N and C are the ends. Square brackets hold non-standard residues; d marks the D form. Peptide text beside a SMILES is read from it. I, II: the chains in the order shown. Actinocin(9to1) = Cc1c2oc3c(C)ccc(C(=O)[*:1])c3nc-2c(C(=O)[*:2])c(N)c1=O; NMeV = CN[C@H](C(=O)O)C(C)C; Sar = CNCC(=O)O

System: MDAMB231
Assay: relative JC-1 red fluorescence (viability) vs pre-drug, coculture with fibroblast (fraction); higher = more viable cancer cells
Method: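 JC-1 labelled TNBC cells cocultured 1:1 (1,500 cells each) with CellTrace Violet stained primary or stromal fibroblasts in 384-well plates in FluoroBrite medium, treated with one of 42 anticancer drugs at 0.1, 1, 10 or 100 uM. JC-1 red fluorescence (mitochondrial integrity in cancer cells only) was read by plate reader every 8 h for 72 h. Values are normalised to each well's pre-drug value. The stock of one drug was tenfold lower, so its dose labels may be too high.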

Cc1c2oc3c(C)ccc(C(=O)N[C@@H]4C(=O)N[C@H](C(C)C)C(=O)N5CCC[C@H]5C(=O)N(C)CC(=O)N(C)[C@@H](C(C)C)C(=O)O[C@@H]4C)c3nc-2c(C(=O)N[C@@H]2C(=O)N[C@H](C(C)C)C(=O)N3CCC[C@H]3C(=O)N(C)CC(=O)N(C)[C@@H](C(C)C)C(=O)O[C@@H]2C)c(N)c1=O [Dactinomycin] (I: T[dV]P[Sar][NMeV] / II: T[dV]P[Sar][NMeV]; ester I:1-I:C, II:1-II:C; linker I:N-II:N via Actinocin(9to1))
relative JC-1 red fluorescence
Settings | 8 h | 16 h | 24 h | 32 h | 40 h | 48 h | 56 h | 64 h | 72 h
10 µM, coculture fibroblast: C12385 | 0.78 ± 0.011 | 0.727 ± 0.011 | 0.688 ± 0.012 | 0.623 ± 0.021 | 0.564 ± 0.022 | 0.551 ± 0.046 | 0.536 ± 0.055 | 0.566 ± 0.063 | 0.559 ± 0.071
10 µM, coculture fibroblast: H6013 | 0.924 ± 0.024 | 0.837 ± 0.025 | 0.743 ± 0.019 | 0.675 ± 0.011 | 0.613 ± 0.0091 | 0.602 ± 0.014 | 0.573 ± 0.01 | 0.549 ± 0.026 | 0.514 ± 0.037
10 µM, coculture fibroblast: H6019 | 0.781 ± 0.015 | 0.644 ± 0.028 | 0.614 ± 0.1 | 0.545 ± 0.13 | 0.523 ± 0.12 | 0.513 ± 0.12 | 0.495 ± 0.13 | 0.493 ± 0.095 | 0.475 ± 0.089
10 µM, coculture fibroblast: H6076 | 0.883 ± 0.019 | 0.768 ± 0.026 | 0.661 ± 0.023 | 0.607 ± 0.029 | 0.567 ± 0.032 | 0.539 ± 0.036 | 0.525 ± 0.042 | 0.513 ± 0.047 | 0.518 ± 0.047
10 µM, coculture fibroblast: H6231 | 0.874 ± 0.048 | 0.821 ± 0.066 | 0.782 ± 0.066 | 0.737 ± 0.058 | 0.692 ± 0.069 | 0.667 ± 0.065 | 0.64 ± 0.072 | 0.637 ± 0.057 | 0.627 ± 0.047
10 µM, coculture fibroblast: HADF | 0.9114 ± 0.0082 | 0.88 ± 0.015 | 0.815 ± 0.023 | 0.747 ± 0.02 | 0.702 ± 0.023 | 0.663 ± 0.031 | 0.629 ± 0.035 | 0.61 ± 0.034 | 0.561 ± 0.014
10 µM, coculture fibroblast: HCFa | 0.9046 ± 0.0046 | 0.8415 ± 0.0013 | 0.777 ± 0.0091 | 0.702 ± 0.021 | 0.649 ± 0.028 | 0.61 ± 0.045 | 0.579 ± 0.041 | 0.546 ± 0.053 | 0.511 ± 0.049
10 µM, coculture fibroblast: HCPF | 0.935 ± 0.016 | 0.8696 ± 0.0071 | 0.801 ± 0.016 | 0.761 ± 0.0009 | 0.718 ± 0.012 | 0.674 ± 0.019 | 0.635 ± 0.025 | 0.616 ± 0.039 | 0.596 ± 0.03
10 µM, coculture fibroblast: HHSteC | 0.9242 ± 0.0026 | 0.9078 ± 0.0021 | 0.844 ± 0.014 | 0.787 ± 0.032 | 0.741 ± 0.027 | 0.71 ± 0.025 | 0.656 ± 0.015 | 0.633 ± 0.0081 | 0.599 ± 0.022
10 µM, coculture fibroblast: HMF | 0.916 ± 0.061 | 0.859 ± 0.075 | 0.791 ± 0.077 | 0.747 ± 0.09 | 0.691 ± 0.092 | 0.655 ± 0.094 | 0.61 ± 0.078 | 0.583 ± 0.069 | 0.578 ± 0.068
10 µM, coculture fibroblast: HPFa | 0.937 ± 0.019 | 0.9 ± 0.019 | 0.8215 ± 0.0042 | 0.753 ± 0.025 | 0.723 ± 0.028 | 0.698 ± 0.043 | 0.659 ± 0.062 | 0.641 ± 0.057 | 0.606 ± 0.061
10 µM, coculture fibroblast: HUF | 0.853 ± 0.006 | 0.7602 ± 0.0049 | 0.74 ± 0.013 | 0.636 ± 0.016 | 0.581 ± 0.02 | 0.569 ± 0.029 | 0.535 ± 0.042 | 0.539 ± 0.055 | 0.529 ± 0.068
10 µM, coculture fibroblast: Hs5 | 0.906 ± 0.027 | 0.867 ± 0.034 | 0.833 ± 0.035 | 0.779 ± 0.027 | 0.747 ± 0.025 | 0.704 ± 0.034 | 0.698 ± 0.023 | 0.677 ± 0.003 | 0.66 ± 0.015
10 µM, coculture fibroblast: Hs27A | 0.9225 ± 0.0038 | 0.883 ± 0.013 | 0.817 ± 0.04 | 0.763 ± 0.09 | 0.709 ± 0.12 | 0.685 ± 0.14 | 0.668 ± 0.15 | 0.657 ± 0.16 | 0.615 ± 0.18
10 µM, coculture fibroblast: Hs343T | 0.912 ± 0.065 | 0.806 ± 0.032 | 0.7149 ± 0.0043 | 0.659 ± 0.034 | 0.585 ± 0.064 | 0.555 ± 0.073 | 0.521 ± 0.082 | 0.507 ± 0.098 | 0.495 ± 0.12
10 µM, coculture fibroblast: WS1 | 0.78 ± 0.023 | 0.725 ± 0.018 | 0.669 ± 0.061 | 0.603 ± 0.08 | 0.57 ± 0.1 | 0.556 ± 0.13 | 0.527 ± 0.15 | 0.527 ± 0.16 | 0.52 ± 0.17
100 µM, coculture fibroblast: C12385 | 0.698 ± 0.032 | 0.677 ± 0.044 | 0.561 ± 0.048 | 0.543 ± 0.078 | 0.465 ± 0.093 | 0.457 ± 0.11 | 0.427 ± 0.092 | 0.405 ± 0.082 | 0.374 ± 0.066
100 µM, coculture fibroblast: H6013 | 0.8802 ± 0.005 | 0.8042 ± 0.0011 | 0.7289 ± 0.0042 | 0.658 ± 0.015 | 0.588 ± 0.033 | 0.561 ± 0.044 | 0.515 ± 0.025 | 0.483 ± 0.037 | 0.441 ± 0.044
100 µM, coculture fibroblast: H6019 | 0.759 ± 0.016 | 0.643 ± 0.029 | 0.54 ± 0.021 | 0.47 ± 0.019 | 0.412 ± 0.0097 | 0.392 ± 0.017 | 0.37 ± 0.018 | 0.371 ± 0.0065 | 0.348 ± 0.0039
100 µM, coculture fibroblast: H6076 | 0.835 ± 0.011 | 0.7392 ± 0.0071 | 0.656 ± 0.014 | 0.623 ± 0.026 | 0.585 ± 0.025 | 0.557 ± 0.021 | 0.529 ± 0.015 | 0.525 ± 0.012 | 0.507 ± 0.0095
100 µM, coculture fibroblast: H6231 | 0.891 ± 0.058 | 0.835 ± 0.057 | 0.797 ± 0.057 | 0.776 ± 0.032 | 0.759 ± 0.054 | 0.722 ± 0.059 | 0.674 ± 0.045 | 0.654 ± 0.03 | 0.626 ± 0.03
100 µM, coculture fibroblast: HADF | 0.8558 ± 0.007 | 0.805 ± 0.025 | 0.744 ± 0.04 | 0.671 ± 0.036 | 0.598 ± 0.033 | 0.561 ± 0.026 | 0.519 ± 0.02 | 0.505 ± 0.0031 | 0.457 ± 0.0077
100 µM, coculture fibroblast: HCFa | 0.8871 ± 0.0023 | 0.843 ± 0.01 | 0.801 ± 0.021 | 0.725 ± 0.026 | 0.649 ± 0.053 | 0.611 ± 0.071 | 0.573 ± 0.068 | 0.547 ± 0.08 | 0.517 ± 0.087
100 µM, coculture fibroblast: HCPF | 0.8478 ± 0.0068 | 0.79 ± 0.0015 | 0.737 ± 0.017 | 0.695 ± 0.019 | 0.644 ± 0.03 | 0.617 ± 0.034 | 0.587 ± 0.029 | 0.574 ± 0.033 | 0.564 ± 0.041
100 µM, coculture fibroblast: HHSteC | 0.882 ± 0.016 | 0.848 ± 0.025 | 0.803 ± 0.0033 | 0.737 ± 0.021 | 0.679 ± 0.039 | 0.647 ± 0.039 | 0.589 ± 0.044 | 0.559 ± 0.044 | 0.501 ± 0.041
100 µM, coculture fibroblast: HMF | 0.866 ± 0.019 | 0.8158 ± 0.0018 | 0.7461 ± 0.00028 | 0.69 ± 0.0095 | 0.631 ± 0.01 | 0.587 ± 0.0097 | 0.565 ± 0.013 | 0.564 ± 0.017 | 0.559 ± 0.017
100 µM, coculture fibroblast: HPFa | 0.9121 ± 0.0051 | 0.8863 ± 0.0053 | 0.806 ± 0.017 | 0.715 ± 0.022 | 0.673 ± 0.023 | 0.641 ± 0.03 | 0.58 ± 0.021 | 0.562 ± 0.031 | 0.515 ± 0.023
100 µM, coculture fibroblast: HUF | 0.843 ± 0.058 | 0.78 ± 0.092 | 0.803 ± 0.12 | 0.679 ± 0.12 | 0.621 ± 0.11 | 0.616 ± 0.11 | 0.577 ± 0.1 | 0.577 ± 0.11 | 0.57 ± 0.1
100 µM, coculture fibroblast: Hs5 | 0.878 ± 0.013 | 0.816 ± 0.021 | 0.736 ± 0.04 | 0.69 ± 0.045 | 0.641 ± 0.053 | 0.582 ± 0.04 | 0.541 ± 0.037 | 0.52 ± 0.037 | 0.503 ± 0.037
100 µM, coculture fibroblast: Hs27A | 0.87 ± 0.029 | 0.8047 ± 0.0018 | 0.7444 ± 0.0011 | 0.688 ± 0.018 | 0.595 ± 0.054 | 0.565 ± 0.073 | 0.536 ± 0.07 | 0.524 ± 0.073 | 0.48 ± 0.061
100 µM, coculture fibroblast: Hs343T | 0.863 ± 0.018 | 0.796 ± 0.0097 | 0.721 ± 0.013 | 0.6693 ± 0.004 | 0.6073 ± 0.0028 | 0.567 ± 0.011 | 0.529 ± 0.022 | 0.521 ± 0.03 | 0.515 ± 0.042
100 µM, coculture fibroblast: WS1 | 0.7216 ± 0.002 | 0.6616 ± 0.0013 | 0.599 ± 0.016 | 0.552 ± 0.017 | 0.506 ± 0.033 | 0.492 ± 0.053 | 0.465 ± 0.06 | 0.452 ± 0.072 | 0.426 ± 0.08
